Reference: patent US20130252890A1, “6,7-DIHYDRO-5H-BENZO[7]ANNULENE DERIVATIVES, PROCESS FOR PREPARATION THEREOF, PHARMACEUTICAL PREPARATIONS COMPRISING THEM, AND THE USE THEREOF FOR PRODUCTION OF MEDICAMENTS” (BAYER INTELLECTUAL PROPERTY GMBH, priority 2010, published 2013)

Amino acid sequences for entries named in this document (tags omitted).
UniProt P03372, whole entry: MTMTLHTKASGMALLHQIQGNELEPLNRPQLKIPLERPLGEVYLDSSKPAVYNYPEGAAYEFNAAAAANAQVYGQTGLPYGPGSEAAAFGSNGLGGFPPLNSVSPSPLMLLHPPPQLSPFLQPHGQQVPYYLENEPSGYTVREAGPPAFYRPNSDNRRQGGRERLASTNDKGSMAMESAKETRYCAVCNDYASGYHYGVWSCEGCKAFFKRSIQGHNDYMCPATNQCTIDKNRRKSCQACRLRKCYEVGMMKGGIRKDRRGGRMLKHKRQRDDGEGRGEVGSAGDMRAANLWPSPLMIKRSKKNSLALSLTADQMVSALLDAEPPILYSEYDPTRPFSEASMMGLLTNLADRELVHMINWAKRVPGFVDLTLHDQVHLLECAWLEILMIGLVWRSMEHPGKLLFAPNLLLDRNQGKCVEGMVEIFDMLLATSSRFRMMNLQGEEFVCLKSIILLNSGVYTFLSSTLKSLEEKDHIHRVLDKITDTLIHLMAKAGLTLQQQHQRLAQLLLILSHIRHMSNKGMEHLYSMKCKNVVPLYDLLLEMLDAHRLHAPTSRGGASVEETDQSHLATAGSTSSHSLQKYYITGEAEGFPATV

Target: oestrogen receptor (ER) (Homo sapiens, UniProt P03372)
Test: Anti-oestrogenic action in MVLN cells (inhibition of estradiol-induced luciferase)
Format: cell-based
Details: read-out: Antioestrogenic action in vitro: MVLN transactivation antagonism IC50, inhibition of estradiol-induced luciferase signal, value of Ex. 44 is a mean value
From the text: The anti-oestrogenic action of the claimed pharmacological compounds was investigated in so-called MVLN cells in vitro. MVLN cells are derivatives of the hormone-responsive MCF7 breast cancer cells known by a person skilled in the art. These MVLN cells express, along with the functional oestrogen receptor (ER), a reporter construct, which under ER-activation expresses luciferase. Determination of the activity of the induced luciferase permits a direct conclusion on the oestrogen properties of substances. To investigate the anti-oestrogenic properties of the pharmacological compounds, they were investigated in the presence of oestrogen for their potential for inhibiting the luciferase signal induced by estradiol. The claimed pharmacological test substances were investigated in MVLN cells for their anti-oestrogenic potential, as described (see Table 2).

Row | IC50 | Compound
1 | 17 nM | CN(CCCCCCC1=C(c2ccc(F)c(F)c2)CCCc2cc(O)ccc21)CCCCS(=O)(=O)CCC(F)(F)C(F)(F)F
2 | 31 nM | CN(CCCCCCC1=C(c2ccc(F)cc2)CCCc2cc(O)ccc21)CCCCCS(=O)(=O)CCC(F)(F)F

Structures were worked out from names or drawings and are uncertain.
